The test has as its target T1, NhRL-MCT4 (full-length monocarboxylate transporter-4 fused to the N-terminal portion of Renilla luciferase) (UniProt O15427).
T1 sequence: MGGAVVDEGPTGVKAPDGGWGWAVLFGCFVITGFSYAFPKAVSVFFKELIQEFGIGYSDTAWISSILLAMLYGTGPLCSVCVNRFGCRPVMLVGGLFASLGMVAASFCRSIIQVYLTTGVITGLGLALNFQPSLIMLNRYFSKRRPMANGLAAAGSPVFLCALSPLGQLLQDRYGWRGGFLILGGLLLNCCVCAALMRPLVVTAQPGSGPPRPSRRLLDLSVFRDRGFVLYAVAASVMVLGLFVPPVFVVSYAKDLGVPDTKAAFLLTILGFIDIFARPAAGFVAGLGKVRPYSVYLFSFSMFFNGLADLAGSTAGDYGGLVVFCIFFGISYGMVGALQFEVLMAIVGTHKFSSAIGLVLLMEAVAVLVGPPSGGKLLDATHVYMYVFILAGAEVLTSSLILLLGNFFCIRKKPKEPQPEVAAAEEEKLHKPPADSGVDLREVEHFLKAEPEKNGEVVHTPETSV
The experiment in a line: split reporter; split Renilla luciferase complementation in HEK293 cells co-transfected with the fusion constructs; Rluc activity normalised to Firefly luciferase from a CMV promoter and to empty vector.

This note sets out measurements from article PMC5487345.

Results are given in words; binding and its absence hold for the method and conditions named. Binding seen in cells or lysates may run through a third protein. Binding calls can cover weak binding; strength is not graded here. Sequences can lack the tags named with a protein.

In the case of “Basigin-ChRL (full-length Basigin fused to the C-terminal portion of Renilla luciferase)”, the binding entry is given as “binds”.
